Counter-ions that a name gives are not always drawn. The campaign covered roughly 5,300 compounds. About 130 (2.5%) showed an effect of 50% or more. The list shows a part of the results.
Each compound was assayed on M. mycetomatis strain mm55. Settings: primary screen, metabolic activity vs growth control; 96 h, 2 µM; inhibitor.

First: COc1ccc2[nH]c(I)c(CCNC(C)=O)c2c1 [ONC0000040, 2iodomelatonin]
Second: COc1ccc2c(c1)N(C[C@H](C)CN(C)C)c1ccccc1S2 [ONC0005616, levomepromazine]
The “% viability” value of the first is higher: 94.63% for the first, 72.59% for the second.

Compared with CCOC(=O)c1cc2ccc(O)cc2oc1=O [ONC0000162, yz9], O=c1ccc2ccc(O)c(O)c2o1 [ONC0004734, daphnetin] is higher in “% viability” value: 106.5% for the first, 134.1% for the second.

Compared with CO[C@@]1(NC(=O)CSCC#N)C(=O)N2C(C(=O)O)=C(CSc3nnnn3C)CS[C@@H]21 [ONC0000659, cefmetazole sodium], CC(=O)OCC1=C(C(=O)O)N2C(=O)[C@@H](N)[C@H]2SC1 [ONC0004514, 7aminocephalosporanic acid] is lower in “% viability” value: 84.29% for the first, 52.68% for the second.

Compared with CCC[C@@H]1C[C@@H](C(=O)N[C@@H]([C@H]2O[C@H](SC)[C@H](O)[C@@H](O)[C@@H]2O)[C@@H](C)O)N(C)C1 [ONC0000511, lincomycin hydrochloride], CCOc1ccc(Cc2cc([C@@H]3O[C@H](SC)[C@@H](O)[C@H](O)[C@H]3O)ccc2Cl)cc1 [ONC0001906, sotagliflozin] is lower in “% viability” value: 95.69% for the first, 81.25% for the second.

Going from O=C(O)CCCCN(CCc1ccccc1OCc1ccc(CCc2ccccc2)cc1)Cc1ccc(C(=O)O)cc1 [ONC0000830, cinaciguat] to CCOc1ccc(-n2c(C(C)N(Cc3cccnc3)C(=O)Cc3ccc(F)c(C(F)(F)F)c3)nc3ncccc3c2=O)cc1 (stereo not shown) [ONC0002523, nbi74330], the “% viability” value rises from 70.66% to 76.52%.

Compared with CCCN(CCC)C(=O)C(CCC(=O)O)NC(=O)c1ccccc1 (stereo not shown) [ONC0000651, proglumide sodium], COC(=O)c1ccccc1O [ONC0003750, methylsalicylate] is higher in “% viability” value: 101.2% for the first, 102.4% for the second.

Going from C/C=C1\NC(=O)[C@H]2CSSCC/C=C/[C@H](CC(=O)N[C@H](C(C)C)C(=O)N2)OC(=O)[C@H](C(C)C)NC1=O [ONC0000722, romidepsin] to CO[C@@H]1COCC[C@@H]1N[C@@H]1CC[C@@](C(=O)N2CCc3ncc(C(F)(F)F)cc3C2)(C(C)C)C1 [ONC0002204, mk0812 succinate], the “% viability” value rises from 49.6% to 88.14%.

First: C[C@@H]1CN([C@H]2CC[C@](C#N)(c3ccc(F)cc3)CC2)CC[C@]1(C(=O)O)c1ccccc1 [ONC0002918, levocabastine]
Second: CN1CCCC(CC2c3ccccc3Sc3ccccc32)C1 (stereo not shown) [ONC0002318, metixene]
The “% viability” value of the first is higher: 70.8% for the first, 53.15% for the second.

Compared with O=C(O)CC[C@H]1CC[C@@](c2cc(F)ccc2F)(S(=O)(=O)c2ccc(Cl)cc2)CC1 [ONC0005079, mk0752], Cc1ccc(NC(=O)C(C)C)cc1C1CCN(Cc2ccc(Oc3ccc(F)c(F)c3)cc2)CC1 [ONC0000242, snap94847] is higher in “% viability” value: 51.35% for the first, 62.1% for the second.

Compared with Cc1nnc(-c2ccc3occ(-c4ccc([S+](C)[O-])cc4)c3c2)o1 (stereo not shown) [ONC0000062, tcs2002], CS(=O)(=O)CCNCc1ccc(-c2ccc3ncnc(Nc4ccc(OCc5cccc(F)c5)c(Cl)c4)c3c2)o1 [ONC0004610, lapatinib gw572016 ditosylate] is lower in “% viability” value: 113.4% for the first, 72% for the second.

Compared with COc1ccccc1N1CCN(CC(O)COc2cccc3ccccc23)CC1 (stereo not shown) [ONC0005382, naftopidil], C(=C\c1ccccc1)/CN1CCN(CCOC(c2ccccc2)c2ccccc2)CC1 [ONC0001630, gbr12783] is lower in “% viability” value: 131.2% for the first, 65.14% for the second.

Going from CN1CCC(=C2c3ccccc3CC(=O)c3sccc32)CC1 [ONC0003423, ketotifen fumarate] to CCN1C(=O)NC(c2ccccc2)C1=O (stereo not shown) [ONC0003653, ethotoin], the “% viability” value falls from 76.67% to 75.36%.

Going from Cn1c(=O)cnn(CCCCN2CCN(c3ncccn3)CC2)c1=O [ONC0001766, eptapirone] to COc1cc(OC)c(C(=O)CCCN2CCCC2)c(OC)c1 [ONC0003999, buflomedil hydrochloride], the “% viability” value falls from 90.7% to 83.06%.

Compared with O=c1[nH]cnc2c([C@@H]3N[C@H](CO)[C@@H](O)[C@H]3O)c[nH]c12 [ONC0001813, forodesine hydrochloride], Nc1c(Br)cc(Br)cc1CN[C@H]1CC[C@H](O)CC1 [ONC0004141, ambroxol hydrochloride] is lower in “% viability” value: 95.12% for the first, 63.05% for the second.

Compared with COc1ccc(CCNCc2ccc(OCc3ccc(Cl)nc3)c(OC)c2)cc1OC [ONC0003066, sbe13], CC(C)Oc1ccc(Cc2ccc(NC3=NCCN3)cc2)cc1 [ONC0002485, ro1138452] is lower in “% viability” value: 68.66% for the first, 58.53% for the second.

Compared with CC(C)(C)C(=O)OCOP(=O)(COCCn1cnc2c(N)ncnc21)OCOC(=O)C(C)(C)C [ONC0004847, adefovir dipivoxil preveon hepsera], NC(=O)CN1Cc2ccccc2OC1=O [ONC0003769, caroxazone] is lower in “% viability” value: 126.5% for the first, 98.29% for the second.

Going from N#C/C(=C\c1ccc(O)c(O)c1)C(N)=O [ONC0003569, tyrphostinag99] to O=C(Nc1ccc(O)cc1)c1ccccc1O [ONC0002775, osalmid], the “% viability” value falls from 115.4% to 94.91%.

First: N#CC(c1ccc(Cl)cc1)c1c(Cl)cc(-n2ncc(=O)[nH]c2=O)cc1Cl (stereo not shown) [ONC0004038, diclazuril]
Second: Oc1ccc(Cl)c2cccnc12 [ONC0000285, cloxyquin]
The “% viability” value of the first is lower: 72.76% for the first, 96.09% for the second.

First: OCc1cc([C@@H](O)CNCCCCCCOCCOCc2c(Cl)cccc2Cl)ccc1O [ONC0001946, vilanterol trifenatate]
Second: CCC(=O)c1ccc(O)cc1 [ONC0005323, paroxypropione]
The “% viability” value of the first is lower: 94.19% for the first, 97.45% for the second.

First: CC1Nc2ccc(Cl)cc2S(=O)(=O)N1 (stereo not shown) [ONC0000764, idra21]
Second: C=CC(=O)Nc1cccc(Nc2nc(Nc3ccc(N4CCN(C(C)=O)CC4)cc3OC)ncc2C(F)(F)F)c1 [ONC0004367, rociletinib co1686 avl301]
The “% viability” value of the first is lower: 80.26% for the first, 125.3% for the second.
